According to doi:10.1101/566430:
No constants are given. Whether binding was seen depends on the method and setting. In cells and extracts the contact can be indirect. Some entries that bind do so weakly or less than the wild type.

Chains of the proteins cited; added tags and fusions are not shown. Lines headed by an entry give the natural chain unless they say otherwise; changes in a name come on top.
UniProt P31749, whole entry: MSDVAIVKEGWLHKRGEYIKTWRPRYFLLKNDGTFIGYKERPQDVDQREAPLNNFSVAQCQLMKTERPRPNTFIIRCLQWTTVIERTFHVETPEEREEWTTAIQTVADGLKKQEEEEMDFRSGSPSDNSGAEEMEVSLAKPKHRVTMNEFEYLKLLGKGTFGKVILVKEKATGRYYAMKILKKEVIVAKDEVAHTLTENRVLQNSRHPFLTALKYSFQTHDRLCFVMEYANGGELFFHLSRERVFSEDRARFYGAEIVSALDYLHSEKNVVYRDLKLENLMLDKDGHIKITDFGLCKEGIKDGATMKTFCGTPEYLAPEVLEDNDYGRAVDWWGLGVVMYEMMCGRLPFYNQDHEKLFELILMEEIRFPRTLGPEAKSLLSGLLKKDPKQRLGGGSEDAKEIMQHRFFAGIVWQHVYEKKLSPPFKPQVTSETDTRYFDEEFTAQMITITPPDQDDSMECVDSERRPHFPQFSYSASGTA
UniProt O15530, whole entry, looked up, stated change not applied: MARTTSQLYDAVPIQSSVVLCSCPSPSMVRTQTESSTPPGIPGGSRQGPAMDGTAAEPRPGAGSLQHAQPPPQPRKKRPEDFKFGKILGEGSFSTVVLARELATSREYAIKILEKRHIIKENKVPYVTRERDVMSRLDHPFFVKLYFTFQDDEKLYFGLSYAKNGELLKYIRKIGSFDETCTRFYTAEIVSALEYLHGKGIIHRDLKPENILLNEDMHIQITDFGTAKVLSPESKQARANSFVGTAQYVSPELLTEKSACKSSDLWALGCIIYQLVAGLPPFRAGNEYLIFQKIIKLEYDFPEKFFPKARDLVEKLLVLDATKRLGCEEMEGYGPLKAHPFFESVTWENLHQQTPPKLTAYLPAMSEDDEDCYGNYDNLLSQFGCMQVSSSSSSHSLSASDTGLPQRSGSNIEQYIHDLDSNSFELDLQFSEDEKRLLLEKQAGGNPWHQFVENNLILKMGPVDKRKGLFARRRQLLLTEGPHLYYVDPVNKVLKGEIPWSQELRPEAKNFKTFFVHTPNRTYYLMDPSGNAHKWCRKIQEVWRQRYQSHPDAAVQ

Target: mCherry-HA-PKB (Akt/PKB) (UniProt P31749)
Assay: FRET or BRET

| Substance | binding |
| --- | --- |
| PDK1 R466A/K467A, full length (eGFP-myc-PDK1 and HA-PDK1-mCherry, both R466A/K467A) (from UniProt O15530 1-556) (enzyme) | binds |
| PDK1 K465A, full length (eGFP-myc-PDK1 K465A and HA-PDK1-mCherry K465A) (from UniProt O15530 1-556) (enzyme) | binds |
